Results reported in paper PMC8657445.
These are yes or no findings as the source states them, for the method shown. In cells and extracts the contact can be indirect. Binding calls can cover weak binding; strength is not graded here. For part of these data: Where a sequence is shown, tags or fusion partners need not be part of it. Values belong to the molecule of their own block, whether it stands above or below them.

Legend:
[1] = molecular target: T1, AtPII-GFP (Arabidopsis thaliana) (UniProt Q9ZST4); assay: FRET or BRET; FRET/FLIM: GFP donor lifetime of co-localising GFP and mCherry signals against AtPII-GFP alone; 2in1 pFRET vectors under p35S; transiently transformed N. benthamiana leaf disks, plastids in the epidermis
T1 sequence: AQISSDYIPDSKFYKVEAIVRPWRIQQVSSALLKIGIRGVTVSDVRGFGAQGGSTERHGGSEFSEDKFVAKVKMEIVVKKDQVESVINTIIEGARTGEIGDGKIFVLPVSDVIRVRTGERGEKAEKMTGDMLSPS

[2] = molecular target: AtPII_(ΔCT15)-GFP (Arabidopsis thaliana); assay: co-IP; GFP-tagged proteins isolated with GFP traps from protein extracts of co-infiltrated tobacco leaves; co-eluted mCherry-tagged proteins detected by Western blot with an anti-RFP antibody

binding [1]: binds
Molecule: AtDXR-mCherry (Arabidopsis thaliana) (enzyme)

binding [2]: binds
B1: AtPII-mCherry (protein, UniProt Q9ZST4 62-196)
chain: T1 sequence

binding [2]: binds
B2: AtNAGK-mCherry (enzyme, UniProt Q9SCL7 51-347)
chain: TVSTPPSIATGNAPSPDYRVEILSESLPFIQKFRGKTIVVKYGGAAMTSPELKSSVVSDLVLLACVGLRPILVHGGGPDINRYLKQLNIPAEFRDGLRVTDATTMEIVSMVLVGKVNKNLVSLINAAGATAVGLSGHDGRLLTARPVPNSAQLGFVGEVARVDPSVLRPLVDYGYIPVIASVAADDSGQAYNINADTVAGELAAALGAEKLILLTDVAGILENKEDPSSLIKEIDIKGVKKMIEDGKVAGGMIPKVKCCIRSLAQGVKTASIIDGRRQHSLLHEIMSDEGAGTMITG
